Measurements from PubChem BioAssay AID624291 (National Center for Advancing Translational Sciences (NCATS), 2012).
Among all 350,000 compounds or so, about 220 (0.063%) were called active. Inconclusive means that the source gave no clear call. Such entries were picked first, then a sample of the others. Calls follow the shape of the dose curve; as a rule, active = well fitted activation curve with a large enough effect; inconclusive = small, poorly fitted or top-dose-only effect; inactive = no such curve, though single readings can be large or run the other way. Where the call is inconclusive, the potency comes from a doubtful curve fit.

Assay: qHTS for Activators of Integrin-Mediated Alleviation for Muscular Dystrophy; also: nearly all actives have a fitted effect of over 60% in size;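 as to activation: 100% = response of the positive control SU9516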
Conditions: alpha7betagal myoblasts, beta-gal FDG fluorescence, 48 h; activation: at 38.3 µM (top of the series)
How it was run: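 alpha7betagal+/- myoblasts (passage 13, 250/well) treated 48 h at 37C with compounds at 1:260 dilution of DMSO stock. Lysed, then beta-galactosidase activity read as FDG fluorescence (ex 480/em 540) after 30 min, with pre-read for autofluorescence.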
Potency is read from the fitted curve at half-maximal effect.

Compound | Potency | activation
O=C(Nc1cc([N+](=O)[O-])ccc1O)c1cccc(NC(=O)c2ccco2)c1 | inactive | –
O=C(c1ccccc1)C1CCN(C(=O)c2c(F)cccc2F)CC1 | inconclusive: 3.55 µM [activator, single point] | –
CCCCCCOc1ccc(C(CC(=O)NC)C(=O)O)cc1 (stereo not given) | inconclusive: 22.4 µM [activator, single point] | –
O=S(=O)(NCC1CCCO1)c1ccc(-c2ccc(S(=O)(=O)NCC3CCCO3)cc2)cc1 (stereo not given) | inactive | –
Cc1cccc(C)c1NC(=S)N(CCN(C)C)Cc1cccs1 | inactive | –
COc1ccc(CCNC(=O)c2sc3cc(C)ccc3c2Cl)cc1 | inactive | –
Cc1onc(-c2c(Cl)cccc2Cl)c1NC(=O)NNc1c(Cl)cncc1Cl | inconclusive: 1 µM [activator, partial curve, poor fit] | –
O=C(NCCc1cccs1)C1CCC(=O)N(CCc2cccc(F)c2)C1 (stereo not given) | – | inconclusive: 14.6% [activator]
COC(C(=O)N/N=C(\C)CC(=O)Nc1ccc(N(C)C)cc1)c1ccccc1 (stereo not given) | inactive | –
Cc1ccc2nc(SCC(=O)Nc3ncccn3)[nH]c2c1 | inconclusive: 28.2 µM [activator, single point] | –
CC(=O)c1c(C)[nH]c(C(=O)Nc2ccc(F)c(F)c2F)c1C | inconclusive: 7.08 µM [activator, partial curve, poor fit] | –
Cc1cc(C)c2nc(N3C(=O)C(O)=C(C(=O)c4ccco4)C3c3cccc(O)c3)sc2c1 (stereo not given) | inconclusive: 11.2 µM [activator, single point] | –
COC(=O)C[N+](C)(C)C/C=C\c1ccccc1 | inconclusive: 8.91 µM [activator, partial curve, poor fit] | –
CC/C(=N\NC(=O)c1ccoc1C)c1ccc(C)o1 | inconclusive: 5.01 µM [activator, partial curve, poor fit] | –
CCOc1ccc(OCC)c(NC(=O)CN(c2ccc(OC)cc2)S(=O)(=O)c2c(C)noc2C)c1 | inconclusive: 25.1 µM [activator, single point] | –
C(=N\NCc1ccccc1)/c1ccc2ncccc2c1 | inconclusive: 7.94 µM [activator, partial curve, poor fit] | –
O=C(O)c1ccc2cccc(O)c2n1 | inconclusive: 5.62 µM [activator, partial curve] | –
COc1cc2[nH]c(=O)n3nc(-c4ccccc4)nc3c2cc1OC | inactive | –
O=C(Nc1ccc2ccccc2c1)C(c1ccccc1)C1CCCC1 (stereo not given) | inconclusive: 28.2 µM [activator, single point] | –
COc1cccc(CN(C)C(=O)c2cccnc2SC)c1OC | inconclusive: 28.2 µM [activator, single point] | –

Look-ups from above.
`Cc1ccc2nc(SCC(=O)Nc3ncccn3)[nH]c2c1` | Potency: inconclusive: 28.2 µM [activator, single point]
`C(=N\NCc1ccccc1)/c1ccc2ncccc2c1` | Potency: inconclusive: 7.94 µM [activator, partial curve, poor fit]
